For at least one compound, name, drawing or mass did not settle the structure.
Legend:
Format in all cases: cell-based, human
[1] = system: ABCC8; assay: Western blot of multidrug resistance protein ABCC8 in MCF-7 Tet-Off/ACSL4 cells; conditions: doxycycline 1 μg/ml, 48 h
[2] = system: ABCG2; assay: Western blot of multidrug resistance protein ABCG2 in MCF-7 Tet-Off/ACSL4 cells; conditions: doxycycline 1 μg/ml, 48 h
[3] = system: ABCC4; assay: Western blot of multidrug resistance protein ABCC4 in MCF-7 Tet-Off/ACSL4 cells; conditions: doxycycline 1 μg/ml, 48 h
[4] = system: ABCC8; assay: Western blot of ABCC8 in MDA-MB-231 cells after ACSL4 inhibition; conditions: Triacsin C 1 uM or rosiglitazone 100 uM, 48 h
From the text: (§1) A) MDA-MB-231 cells were transfected with the pSUPER.retro plasmid containing a shRNA targeted to ACSL4 (shRNA-ACSL4) or an empty plasmid (mock) as previously described ((Maloberti P. M. et al., 2010, supra).
(§2) One month post selection, whole cell extracts were obtained and analyzed by Western blot as previously described using the indicated antibodies. […] Forty-eight hours post-treatment, whole cell extracts were obtained and analyzed by Western blot as previously described using the indicated antibodies. Representative blots (upper panels) and integrated optical density of protein levels (lower panels) quantified and normalized with the corresponding 1-tubulin signal are shown.
(§3) J Biol Chem 2001; 276(27):24667-24673).
(§4) MDA-MB-231 cells were seeded the day before and grown up to 80% confluence. […] The empty vector was used as control. Transfection efficiency was estimated by counting fluorescent cells transfected with the pRc/CMVi plasmid containing the enhanced form of green fluorescent protein [Maloberti et al.; 2010].

[5] = system: ABCC4; assay: Western blot of ABCC4 in MDA-MB-231 cells after ACSL4 inhibition; conditions: Triacsin C 1 uM or rosiglitazone 100 uM, 48 h
From the text: as §1, §2, §3, §4

Structure (SMILES): C[C@H]1c2cccc(O)c2C(=O)C2=C(O)[C@]3(O)C(=O)C(C(N)=O)=C(O)[C@@H](N(C)C)[C@@H]3[C@@H](O)[C@@H]21 [doxycycline]
- ABCC8 protein expression (increase caused by ACSL4 expression) [1]: inhibited and lowered to basal levels
- ABCG2 protein expression (increase caused by ACSL4 expression) [2]: inhibited and lowered to basal levels
- ABCC4 protein expression (increase caused by ACSL4 expression) [3]: inhibited and lowered to basal levels

Structure (SMILES): CN(CCOc1ccc(CC2SC(=O)NC2=O)cc1)c1ccccn1 (centres unmarked) [rosiglitazone]
- ABCC8 protein levels [4]: markedly decreased
- ABCC4 protein levels [5]: markedly decreased
